{"sequences": {"note": "By UniProt entry, the sequences of proteins in these tests, tags left out. Where a name states a change or a piece, a line headed by the entry shows the natural chain unless it says otherwise. Residues count along the entry.", "UniProt Q03391, residues 28-1323": "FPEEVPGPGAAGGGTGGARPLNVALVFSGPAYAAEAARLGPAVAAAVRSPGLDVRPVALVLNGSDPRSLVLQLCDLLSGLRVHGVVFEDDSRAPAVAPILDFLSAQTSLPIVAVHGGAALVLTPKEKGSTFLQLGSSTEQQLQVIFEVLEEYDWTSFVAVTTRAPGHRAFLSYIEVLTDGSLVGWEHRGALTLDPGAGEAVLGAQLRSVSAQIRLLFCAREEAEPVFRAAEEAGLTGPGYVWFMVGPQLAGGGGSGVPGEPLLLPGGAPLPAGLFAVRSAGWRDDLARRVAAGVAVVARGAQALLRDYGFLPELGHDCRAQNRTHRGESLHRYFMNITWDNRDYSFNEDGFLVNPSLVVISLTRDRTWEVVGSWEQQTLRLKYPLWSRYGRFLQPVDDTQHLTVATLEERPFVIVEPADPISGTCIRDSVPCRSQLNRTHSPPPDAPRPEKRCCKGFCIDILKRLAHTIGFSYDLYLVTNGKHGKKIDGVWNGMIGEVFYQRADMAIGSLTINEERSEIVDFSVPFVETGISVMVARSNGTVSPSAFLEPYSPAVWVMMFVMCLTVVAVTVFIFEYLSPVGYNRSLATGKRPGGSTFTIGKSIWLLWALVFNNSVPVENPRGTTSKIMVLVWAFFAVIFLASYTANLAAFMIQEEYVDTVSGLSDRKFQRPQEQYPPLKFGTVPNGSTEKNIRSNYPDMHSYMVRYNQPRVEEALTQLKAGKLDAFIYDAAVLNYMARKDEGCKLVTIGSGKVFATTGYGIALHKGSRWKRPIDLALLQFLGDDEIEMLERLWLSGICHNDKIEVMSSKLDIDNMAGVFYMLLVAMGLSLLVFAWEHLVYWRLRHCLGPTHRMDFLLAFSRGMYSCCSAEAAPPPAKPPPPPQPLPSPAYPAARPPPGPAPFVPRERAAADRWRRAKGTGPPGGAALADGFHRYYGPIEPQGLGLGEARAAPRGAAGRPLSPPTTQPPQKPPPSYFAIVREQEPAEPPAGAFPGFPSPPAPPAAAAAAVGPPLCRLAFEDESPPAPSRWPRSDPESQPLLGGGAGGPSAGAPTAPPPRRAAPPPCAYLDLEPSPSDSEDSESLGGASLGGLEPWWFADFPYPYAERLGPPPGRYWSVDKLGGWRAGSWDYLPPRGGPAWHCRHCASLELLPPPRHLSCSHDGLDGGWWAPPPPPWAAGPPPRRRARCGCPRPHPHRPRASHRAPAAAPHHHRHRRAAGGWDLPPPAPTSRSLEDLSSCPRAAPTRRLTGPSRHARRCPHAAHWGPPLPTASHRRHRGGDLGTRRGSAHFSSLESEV", "UniProt Q8VCQ8": "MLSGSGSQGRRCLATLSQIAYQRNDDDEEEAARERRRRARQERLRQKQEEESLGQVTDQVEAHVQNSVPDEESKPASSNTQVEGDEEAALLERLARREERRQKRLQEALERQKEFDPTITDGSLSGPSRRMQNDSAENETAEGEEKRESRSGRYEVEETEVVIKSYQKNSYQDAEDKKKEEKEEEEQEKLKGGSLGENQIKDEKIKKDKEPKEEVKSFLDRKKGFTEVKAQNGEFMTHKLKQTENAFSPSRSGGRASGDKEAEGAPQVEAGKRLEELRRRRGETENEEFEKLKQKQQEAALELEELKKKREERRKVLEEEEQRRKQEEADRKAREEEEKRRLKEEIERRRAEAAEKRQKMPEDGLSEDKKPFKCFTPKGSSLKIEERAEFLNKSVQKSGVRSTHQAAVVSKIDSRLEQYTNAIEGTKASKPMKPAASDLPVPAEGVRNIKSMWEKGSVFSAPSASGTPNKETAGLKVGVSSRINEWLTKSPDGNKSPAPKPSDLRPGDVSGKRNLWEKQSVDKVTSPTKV"}, "source": "paper PMC13503848", "target": "GluN2D (NMDA receptor subunit, encoded by Grin2d), expressed as Grin2d-3XFlag (UniProt Q03391)", "assay": "affinity purification with mass spectrometry; RIPA lysate of cultured mouse brain SMCs transduced with Grin2d-3XFlag lentivirus; anti-GluN2D or IgG control antibodies on Protein G Magnetic Beads; eluates analysed by mass spectrometry", "note": "These are yes or no findings as the source states them, for the method shown. In cells and extracts the contact can be indirect. These calls come from enrichment with a bait or labelling near it, and not all partners need be listed."}
{"substance": "caldesmon (encoded by Cald1) (from UniProt Q8VCQ8)", "values": [{"measurement": "binding", "result": "binds"}]}
